We go through one sequence from patent US20060172373.

For at least one entry, the source does not settle the construct or the ends of the probe. For part of these data: Where cells or extracts were used, other partners may take part.

The target in data set [1] is Tn3 resolvase wild type (Escherichia coli) (UniProt P0ADI2). Description: binding assay. The note with it: CITED binds site I but no recombination of I x I without acc; protein in cells.
Data set [2] concerns the target Tn3 resolvase M G101S,D102Y,M103I,Q105L (Escherichia coli) (UniProt P0ADI2). Description: activity assay. The note with it: in vitro recombination of supercoiled pTet(I x I); also active in E. coli; purified recombinant protein.
For data set [3], the target named is Tn3 resolvase NM R2A,E56K,G101S,D102Y,M103I,Q105L (Escherichia coli) (UniProt P0ADI2). Description: activity assay. As to conditions: in vitro, about half of pTet(I x I) recombined in 4 min; more active than M; purified recombinant protein.

For the sequence “CGTTCGAAATATTATAAATTATCAGACA (double strand) [res site I (I x I substrate)]”, the binding result in data set [1] is “binds”. Further, the “activity on this sequence” value in data set [2] and in data set [3] was “active” in each case.
